{"source": "PubChem BioAssay AID686937 (Drosophila RNAi Screening Center, 2013)", "purpose": "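Genes in the fly needed for secretion of protein constitutively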 (primary screen)", "cells": "Drosophila S2 cells expressing secreted horseradish peroxidase", "reagent": "long dsRNA against Drosophila genes", "timing": "about 5.5 days (5 days dsRNA, then 12 h reporter induction)", "challenge": "reporter expression induced after 5 days of dsRNA, read 12 h later; inducer not stated", "measured": "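Chemiluminescent measurement of peroxidase in the medium 12 h after reporter induction, following 5 days of dsRNA, given as a z-score per plate; higher means more secretion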", "direction": "z-score: higher = more reporter secreted into medium", "note": "The deposit covers about 23,000 reagents; shown is an unselected part of those with a known target gene and a result. 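Reduced-secretion tags in replicate 1 do not always agree with the z-scores; no criterion for assigning the tags was given.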 Names joined by + are all predicted targets of the reagent. Not all columns of the deposit are shown. The record does not give: the amount of reagent."}
The first 3 entries, ahead of the listing:
{"gene": "CG4907", "dsRNA": "DRSC15673", "z-score, replicate 1": 0.42}
{"gene": "Unc-115a", "dsRNA": "DRSC12749", "z-score, replicate 1": 0.53}
{"gene": "CG15617", "dsRNA": "DRSC06570", "z-score, replicate 1": 0.48}

Main list, from the start:
{"gene": "CG4907", "dsRNA": "DRSC15673", "z-score, replicate 1": 0.42}
{"gene": "Unc-115a", "dsRNA": "DRSC12749", "z-score, replicate 1": 0.53}
{"gene": "CG15617", "dsRNA": "DRSC06570", "z-score, replicate 1": 0.48}
{"gene": "Mst57Db", "dsRNA": "DRSC21551", "z-score, replicate 1": 0.73}
{"gene": "CG14427", "dsRNA": "DRSC17921", "z-score, replicate 1": 0.13}
{"gene": "CG7182", "dsRNA": "DRSC10780", "z-score, replicate 1": 0.54}
{"gene": "asRNA:CR30267 + CG42260", "dsRNA": "DRSC03953", "z-score, replicate 1": 0.2}
{"gene": "CG7860", "dsRNA": "DRSC20060", "z-score, replicate 1": 0.33}
{"gene": "CG3397", "dsRNA": "DRSC15487", "z-score, replicate 1": 0.25}
{"gene": "Ten-m", "dsRNA": "DRSC11664", "z-score, replicate 1": 0.37}
{"gene": "Ten-m", "dsRNA": "DRSC11882", "z-score, replicate 1": 0.27}
{"gene": "CG14017", "dsRNA": "DRSC02348", "z-score, replicate 1": -0.29}
{"gene": "CG6980", "dsRNA": "DRSC16162", "z-score, replicate 1": 0.24}
{"gene": "retn", "dsRNA": "DRSC04679", "z-score, replicate 1": 0.48}
{"gene": "Rad1 + Sws1", "dsRNA": "DRSC00778", "z-score, replicate 1": 0.34}
{"gene": "per", "dsRNA": "DRSC18818", "z-score, replicate 1": 0.11}
{"gene": "zetaCOP", "dsRNA": "DRSC11412", "z-score, replicate 1": -7.31}
{"gene": "br", "dsRNA": "DRSC17691", "z-score, replicate 1": 0.73}
{"gene": "br", "dsRNA": "DRSC17789", "z-score, replicate 1": 0}
{"gene": "br", "dsRNA": "DRSC18743", "z-score, replicate 1": -0.41}
{"gene": "br", "dsRNA": "DRSC18744", "z-score, replicate 1": -0.83}
{"gene": "CG9400", "dsRNA": "DRSC20182", "z-score, replicate 1": 0.28}
{"gene": "janB", "dsRNA": "DRSC16973", "z-score, replicate 1": 0.2}
{"gene": "CG3847", "dsRNA": "DRSC17444", "z-score, replicate 1": 0.06}
{"gene": "CG3847", "dsRNA": "DRSC18327", "z-score, replicate 1": 0.11}
{"gene": "Ddr", "dsRNA": "DRSC00922", "z-score, replicate 1": -0.17}
{"gene": "Ddr", "dsRNA": "DRSC00923", "z-score, replicate 1": 0.16}
{"gene": "Ddr", "dsRNA": "DRSC02150", "z-score, replicate 1": 0.03}
{"gene": "Ddr", "dsRNA": "DRSC03229", "z-score, replicate 1": 0.42}
{"gene": "Ddr", "dsRNA": "DRSC03230", "z-score, replicate 1": 0.26}
{"gene": "Ddr", "dsRNA": "DRSC22818", "z-score, replicate 1": 1.65}
{"gene": "CG3223", "dsRNA": "DRSC15468", "z-score, replicate 1": 0.2}
{"gene": "Taf1", "dsRNA": "DRSC12607", "z-score, replicate 1": -1.94}
{"gene": "CG12607", "dsRNA": "DRSC08287", "z-score, replicate 1": 0.18}
{"gene": "CG32813", "dsRNA": "DRSC17948", "z-score, replicate 1": 0.23}
{"gene": "Pex11c", "dsRNA": "DRSC14677", "z-score, replicate 1": 0.16}
{"gene": "CG30095", "dsRNA": "DRSC07175", "z-score, replicate 1": 0.29}
{"gene": "CG6000", "dsRNA": "DRSC15938", "z-score, replicate 1": 0.25}
{"gene": "Sec10", "dsRNA": "DRSC17053", "z-score, replicate 1": 0.18}
{"gene": "CG15249", "dsRNA": "DRSC17978", "z-score, replicate 1": 0.39}
